These are yes or no findings as the source states them, for the method shown. Binding seen in cells or lysates may run through a third protein. Some results given as binding are weak or reduced against the parent protein; the word gives no strength.
Molecular target: Sec61β fused to GFP (UniProt P60468)
Test: co-IP; GFP-Trap precipitation of lysates of transfected C2C12 cells; precipitates blotted with antibodies against β-DG

Protein sequences, listed by entry. Tags and fused reporters are not part of them.
UniProt P60468: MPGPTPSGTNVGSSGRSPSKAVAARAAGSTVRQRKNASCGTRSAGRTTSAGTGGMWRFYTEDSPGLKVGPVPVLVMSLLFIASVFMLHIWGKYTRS

B1: β-Dystroglycan (protein, UniProt Q62165 652-893)
chain: SIVVEWTNNTLPLEPCPKEQIIGLSRRIADENGKPRPAFSNALEPDFKALSIAVTGSGSCRHLQFIPVAPPSPGSSAAPATEVPDRDPEKSSEDDVYLHTVIPAVVVAAILLIAGIIAMICYRKKRKGKLTLEDQATFIKKGVPIIFADELDDSKPPPSSSMPLILQEEKAPLPPPEYPNQSMPETTPLNQDTVGEYTPLRDEDPNAPPYQPPPPFTAPMEGKGSRPKNMTPYRSPPPYVPP
binding: binds

From publication PMC5575308
